Assay [1] concerns the target T1, His-tagged SMAD4 WT (Mothers against decapentaplegic homolog 4), Q13485.
T1 chain: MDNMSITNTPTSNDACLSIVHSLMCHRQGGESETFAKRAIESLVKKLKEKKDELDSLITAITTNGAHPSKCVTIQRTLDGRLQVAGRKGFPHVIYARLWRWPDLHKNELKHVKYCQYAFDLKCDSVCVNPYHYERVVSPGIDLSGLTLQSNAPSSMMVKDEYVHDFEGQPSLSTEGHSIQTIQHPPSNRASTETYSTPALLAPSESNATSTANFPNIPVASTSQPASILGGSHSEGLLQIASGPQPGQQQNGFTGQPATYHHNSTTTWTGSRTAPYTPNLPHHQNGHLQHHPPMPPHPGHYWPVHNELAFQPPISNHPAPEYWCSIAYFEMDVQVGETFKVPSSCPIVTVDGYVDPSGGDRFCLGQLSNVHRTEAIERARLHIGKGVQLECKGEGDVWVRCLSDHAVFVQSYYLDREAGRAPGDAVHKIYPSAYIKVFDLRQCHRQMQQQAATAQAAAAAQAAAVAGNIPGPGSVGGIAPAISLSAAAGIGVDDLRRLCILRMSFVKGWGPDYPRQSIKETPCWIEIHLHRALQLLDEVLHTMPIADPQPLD
In words: AlphaScreen or HTRF; TR-FRET (Tb-D2) on serially diluted lysate of HEK293T cells co-expressing His-SMAD4 and Flag-SMAD3; anti-FLAG M2-Tb cryptate and anti-6xHis-D2 antibodies; FRET buffer 20 mM Tris-HCl pH 7.0, 50 mM NaCl, 0.01% NP-40; 384-well plate, 4°C for 30 min; no DNA. Particulars: remark: other sources report otherwise.

The target of assay [2] is T2, GST-SMAD4 (full-length), Q13485.
T2 chain: T1 chain
In words: pull-down; GST pull-down from lysates of HEK293T cells transfected with both partners; 1% NP-40 lysis buffer; lysates incubated with compounds (GA or GNA, or control) for 16 h at 4°C, then glutathione-conjugated beads 2 h at 4°C; western blot with anti-FLAG-HRP and anti-GST-HRP; no DNA oligonucleotides. As to conditions: remark: other sources report otherwise.

These are yes or no findings as the source states them, for the method shown. For some assays here: In cells and extracts the contact can be indirect. Some entries that bind do so weakly or less than the wild type. Sequences can lack the tags named with a protein.

B1: Flag-tagged SMAD3 WT, P84022 1-425 (natural protein)
chain: MSSILPFTPPIVKRLLGWKKGEQNGQEEKWCEKAVKSLVKKLKKTGQLDELEKAITTQNVNTKCITIPRSLDGRLQVSHRKGLPHVIYCRLWRWPDLHSHHELRAMELCEFAFNMKKDEVCVNPYHYQRVETPVLPPVLVPRHTEIPAEFPPLDDYSHSIPENTNFPAGIEPQSNIPETPPPGYLSEDGETSDHQMNHSMDAGSPNLSPNPMSPAHNNLDLQPVTYCEPAFWCSISYYELNQRVGETFHASQPSMTVDGFTDPSNSERFCLGLLSNVNRNAAVELTRRHIGRGVRLYYIGGEVFAECLSDSAIFVQSPNCNQRYGWHPATVCKIPPGCNLKIFNNQEFAALLAQSVNQGFEAVYQLTRMCTIRMSFVKGWGAEYRRQTVTSTPCWIELHLNGPLQWLDKVLTQMGSPSIRCSSVS
In the case of B1, the binding entry in assay [1] was “binds”.

B2: Venus-flag-tagged SMAD3 (full-length), P84022 1-425 (protein)
chain: B1 chain
In the case of B2, in assay [2], the binding entry is “binds”.

Values taken from PMC11063955, “A multiplexed time-resolved fluorescence resonance energy transfer ultrahigh-throughput screening assay for targeting the SMAD4–SMAD3–DNA complex” (Journal of Molecular Cell Biology, 2023).
